Measured values as given in PubChem BioAssay AID256 (DTP/NCI, 2004).
The list does not hold the whole screen: it is rich in T/C values a quarter to a half above the control, in often repeated tests (any T/C) and in doses without a T/C. Other doses and runs of a compound stand elsewhere. T/C is the treated group as % of the vehicle group. Some doses have a count of surviving animals in place of a T/C: the source files T/C as zero there, which appears to mark a toxic dose or a test without result, not a measured value. Some survivor counts are full or nearly so, which does not show that the dose was tolerated: the source hardly ever lists a survival T/C far under the control, and the zero likely stands for such cases as well. Survivors were counted at the toxicity check, usually on the fifth day, unless a day is given; later deaths do not show. Schedule codes are those of the source, read here as Q, the interval in days (D) or hours (H), X, the number of doses. Brackets with × count equal records among those shown. Some structures stand for samples that the source files as different forms (salt, stereo form or complex); doses refer to the form tested. For survival time, the PubChem record calls one and a half times the control and up active, and a quarter to a half above the control has no call in these data; cut-offs in other NCI protocols can differ. Some entries were tested several times; their values stand side by side, smallest first. Some T/C values carry the count of animals alive at the toxicity check (mostly the fifth day); without a count, all were alive then.

System: CD2F1 mice, L1210 leukemia ip, survival T/C
Experiment: NCI In Vivo Anticancer Drug Screen. Data for tumor model L1210 Leukemia (intraperitoneal) in CD2F1 (CDF1) mice
Conditions: higher T/C = longer survival
Method in brief: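 Read-out first: treated-group measurement over vehicle-control measurement, expressed as a ratio. Animals bore a transplanted tumor line and were dosed with compound or vehicle.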

[1] = T/C endpoint: mean survival time, dose: 200.0 mg/kg/injection, schedule: Q01DX009 (ip), vehicle: saline with Tween-80
[2] = T/C endpoint: mean survival time, dose: 400.0 mg/kg/injection, schedule: Q04DX003 (ip), vehicle: saline with Tween-80
[3] = T/C endpoint: mean survival time, dose: 200.0 mg/kg/injection, schedule: Q04DX003 (ip), vehicle: saline with Tween-80
[4] = T/C endpoint: mean survival time, dose: 25.0 mg/kg/injection, schedule: Q01DX009 (ip), vehicle: saline with Tween-80
[5] = T/C endpoint: mean survival time, dose: 400.0 mg/kg/injection, schedule: Q01DX009 (ip), vehicle: saline with Tween-80
[6] = T/C endpoint: median survival time, dose: 2.0 mg/kg/injection, schedule: Q01DX009 (ip), vehicle: saline + alcohol
[7] = T/C endpoint: mean survival time, dose: 200.0 mg/kg/injection, schedule: Q01DX001 (ip), vehicle: saline with Tween-80

NNC(=O)CCc1ccccc1Br
survivor count [1]: 6 of 6
survivor count [2]: 6 of 6

O=C(Nc1ccc(F)cc1)c1ccc(C(=O)Nc2ccc(F)cc2)cc1
survivor count [3]: 6 of 6

C[CH2][Pb]([CH2]C)([CH2]C)[O]S(=O)(=O)c1ccc(C)cc1
survivor count (T/C endpoint: mean survival time, dose: 6.25 mg/kg/injection, schedule: Q01DX009 (ip), vehicle: saline with Tween-80): 3 of 6
survivor count (T/C endpoint: mean survival time, dose: 12.5 mg/kg/injection, schedule: Q01DX009 (ip), vehicle: saline with Tween-80): 1 of 6
survivor count [4]: 0 of 6

CCCCOC(=O)c1ccc(NC(=O)Nc2ccccc2Cl)cc1
survivor count [2]: 1 of 6

Cc1cn(C2CC(O)C(CO)O2)c(=O)[nH]c1=O (stereo unspecified)
survivor count (T/C endpoint: mean survival time, dose: 100.0 mg/kg/injection, schedule: Q01DX009 (ip), vehicle: saline): 5 of 6
survivor count (T/C endpoint: mean survival time, dose: 400.0 mg/kg/injection, schedule: Q01DX009 (ip), vehicle: saline): 6 of 6

Cc1ccc(Sc2cccc3c2C(=O)c2c(Sc4ccc(C)cc4)cccc2C3=O)cc1
survivor count [5]: 3 of 6

Nc1nc(N)c(N=Nc2cccc3ccccc23)c(N)n1
survivor count (T/C endpoint: mean survival time, dose: 200.0 mg/kg/injection, schedule: Q01DX009 (ip), vehicle: water): 6 of 6
survivor count (T/C endpoint: mean survival time, dose: 400.0 mg/kg/injection, schedule: Q01DX009 (ip), vehicle: water): 4 of 6

CCC1c2cc(Oc3c(O)c(OC)cc4c3C(CC)N(C)CC4)c(OC)cc2CCN1C (stereo unspecified)
survivor count (T/C endpoint: mean survival time, dose: 75.0 mg/kg/injection, schedule: Q01DX001 (ip), vehicle: saline): 0 of 6
survivor count (T/C endpoint: mean survival time, dose: 150.0 mg/kg/injection, schedule: Q01DX001 (ip), vehicle: saline): 0 of 6
survivor count (T/C endpoint: mean survival time, dose: 300.0 mg/kg/injection, schedule: Q01DX001 (ip), vehicle: saline): 0 of 6

CC(=O)On1nnc2ccccc2c1=O
survivor count (T/C endpoint: mean survival time, dose: 200.0 mg/kg/injection, schedule: Q01DX001 (ip), vehicle: distilled water + Tween-80): 0 of 6

C[N+](C)(C)c1ccc(Cc2ccc([N+](C)(C)C)cc2)cc1
survivor count (T/C endpoint: mean survival time, dose: 6.25 mg/kg/injection, schedule: Q04DX002 (ip), vehicle: saline with Tween-80): 0 of 3
survivor count (T/C endpoint: mean survival time, dose: 12.5 mg/kg/injection, schedule: Q04DX002 (ip), vehicle: saline with Tween-80): 0 of 3
survivor count (T/C endpoint: mean survival time, dose: 25.0 mg/kg/injection, schedule: Q04DX002 (ip), vehicle: saline with Tween-80): 0 of 3

c1ccc2[nH]c(CCCCCCCCc3nc4ccccc4[nH]3)nc2c1
survivor count [5]: 2 of 6

CCOC(=O)NC(=S)n1ncnc1N
survivor count (T/C endpoint: mean survival time, dose: 50.0 mg/kg/injection, schedule: Q04DX003 (ip), vehicle: saline): 6 of 6

c1ccc2c(-c3nn[nH]n3)nccc2c1
survivor count (T/C endpoint: mean survival time, dose: 400.0 mg/kg/injection, schedule: Q01DX001 (ip), vehicle: saline): 0 of 3

O=C1Nc2ccccc2C1c1ccccc1 (stereo unspecified)
survivor count (T/C endpoint: mean survival time, dose: 400.0 mg/kg/injection, schedule: Q04DX002 (ip), vehicle: saline with Tween-80): 3 of 3

CN(C)N=Nc1ccccc1C(=O)NCC#N
T/C (T/C endpoint: mean survival time, dose: 75.0 mg/kg/injection, schedule: Q01DX009 (ip), vehicle: Klucel (hydroxypropylcellulose) (HPC)): 127 % of control
survivor count (T/C endpoint: mean survival time, dose: 150.0 mg/kg/injection, schedule: Q01DX009 (ip), vehicle: Klucel (hydroxypropylcellulose) (HPC)): 0 of 6
survivor count (T/C endpoint: mean survival time, dose: 300.0 mg/kg/injection, schedule: Q01DX009 (ip), vehicle: Klucel (hydroxypropylcellulose) (HPC)): 0 of 6

CCCCCCCCCCCCCCCCCC(=O)OCC(=O)OCC(=O)[C@]1(O)Cc2c(O)c3c(c(O)c2[C@@H](OC2CC(N)C(O)C(C)O2)C1)C(=O)c1c(OC)cccc1C3=O (stereo partly specified)
T/C (T/C endpoint: mean survival time, dose: 0.39 mg/kg/injection, schedule: Q01DX005 (ip), vehicle: other): 131 % of control
T/C (T/C endpoint: mean survival time, dose: 0.78 mg/kg/injection, schedule: Q01DX005 (ip), vehicle: other): 131 % of control
T/C (T/C endpoint: mean survival time, dose: 1.56 mg/kg/injection, schedule: Q01DX005 (ip), vehicle: other): 129 % of control
T/C (T/C endpoint: mean survival time, dose: 1.56 mg/kg/injection, schedule: Q01DX005 (ip), vehicle: water, evaluated on day 30): 137 % of control
T/C (T/C endpoint: mean survival time, dose: 1.56 mg/kg/injection, schedule: Q01DX005 (ip), vehicle: water, evaluated on day 45): 129 % of control
T/C (T/C endpoint: mean survival time, dose: 3.0 mg/kg/injection, schedule: Q01DX009 (ip), vehicle: saline): 126 % of control
T/C (T/C endpoint: mean survival time, dose: 3.13 mg/kg/injection, schedule: Q01DX005 (ip), vehicle: water): 141 % of control
T/C (T/C endpoint: mean survival time, dose: 6.0 mg/kg/injection, schedule: Q01DX009 (ip), vehicle: saline): 145 % of control
T/C (T/C endpoint: mean survival time, dose: 6.25 mg/kg/injection, schedule: Q01DX005 (ip), vehicle: water): 139 % of control
survivor count (T/C endpoint: mean survival time, dose: 12.5 mg/kg/injection, schedule: Q01DX005 (ip), vehicle: water): 6 of 6 (2×)

O=C(Nc1cccc2ccccc12)OCCCBr
survivor count [4]: 3 of 3

CSC#N
survivor count (T/C endpoint: mean survival time, dose: 20.0 mg/kg/injection, schedule: Q01DX009 (ip), vehicle: Klucel (hydroxypropylcellulose) (HPC)): 1 of 3

OC1OCC(COc2ccc(Cl)cc2)OC1O (stereo unspecified)
T/C (T/C endpoint: median survival time, dose: 400.0 mg/kg/injection, schedule: Q01DX005 (ip), vehicle: saline with Tween-80): 130 % of control
survivor count (T/C endpoint: median survival time, dose: 666.0 mg/kg/injection, schedule: Q01DX005 (ip), vehicle: saline with Tween-80): 1 of 6
survivor count (T/C endpoint: median survival time, dose: 1111.0 mg/kg/injection, schedule: Q01DX005 (ip), vehicle: saline with Tween-80): 0 of 6

CCCCc1ccc(O)c(CN2CCCCC2)c1
survivor count [3]: 2 of 6
survivor count [2]: 0 of 6

CC(O)CNC1CCCCC1 (stereo unspecified)
survivor count (T/C endpoint: mean survival time, dose: 100.0 mg/kg/injection, schedule: Q04DX003 (ip), vehicle: saline with Tween-80): 5 of 6
survivor count [3]: 3 of 6
survivor count [2]: 0 of 6

COC(=O)[C@@]12OC[C@]34[C@H]([C@@H](O)[C@@H]1O)[C@@]1(C)CC(=O)C(O)=C(C)[C@@H]1C[C@H]3OC(=O)[C@H](OC(=O)/C=C(\C)C(C)C)[C@@H]24
T/C (T/C endpoint: mean survival time, dose: 2000.0 micrograms/kg/injection, schedule: Q01DX009 (ip), vehicle: saline + alcohol): 125 % of control [5 of 6 alive]
survivor count (T/C endpoint: mean survival time, dose: 4000.0 micrograms/kg/injection, schedule: Q01DX009 (ip), vehicle: saline + alcohol): 3 of 6
T/C (T/C endpoint: median survival time, dose: 0.5 mg/kg/injection, schedule: Q01DX009 (ip), vehicle: saline + alcohol): 128 % of control
T/C (T/C endpoint: median survival time, dose: 1.0 mg/kg/injection, schedule: Q01DX009 (ip), vehicle: saline + alcohol): 126 and 141 % of control
T/C [6]: 125 % of control
survivor count [6]: 2 of 6
survivor count (T/C endpoint: median survival time, dose: 4.0 mg/kg/injection, schedule: Q01DX009 (ip), vehicle: saline + alcohol): 1 of 6

CSC(=NC#N)N(C)C
survivor count (T/C endpoint: mean survival time, dose: 100.0 mg/kg/injection, schedule: Q04DX003 (ip), vehicle: saline sonified): 3 of 6
survivor count [7]: 0 of 6
survivor count (T/C endpoint: mean survival time, dose: 400.0 mg/kg/injection, schedule: Q01DX001 (ip), vehicle: saline with Tween-80): 0 of 6

c1ccc(CNCCNCc2ccccc2)cc1
survivor count [1]: 2 of 6
survivor count [3]: 0 of 6
survivor count [5]: 0 of 6
survivor count [2]: 0 of 6

CCOC(=O)CN(CC(=O)OCC)c1ccc(C(C)=O)cc1
survivor count (T/C endpoint: mean survival time, dose: 400.0 mg/kg/injection, schedule: Q04DX003 (ip), vehicle: saline): 0 of 6

COc1ccc2c3csc4ccccc4c-3nc2c1
survivor count (T/C endpoint: mean survival time, dose: 100.0 mg/kg/injection, schedule: Q04DX003 (ip), vehicle: acetone): 5 of 6
survivor count (T/C endpoint: mean survival time, dose: 200.0 mg/kg/injection, schedule: Q04DX003 (ip), vehicle: acetone): 1 of 6
survivor count [3]: 3 of 6
survivor count (T/C endpoint: mean survival time, dose: 400.0 mg/kg/injection, schedule: Q04DX003 (ip), vehicle: acetone): 0 of 6
survivor count [2]: 1 of 6

CSC(=O)C(=O)SC
survivor count [7]: 3 of 6

COC(=O)C(CSC(c1ccccc1)(c1ccccc1)c1ccccc1)NC(=O)C(CC(N)=O)NC(=O)OCc1ccccc1 (stereo unspecified)
T/C (T/C endpoint: median survival time, dose: 100.0 mg/kg/injection, schedule: Q01DX009 (ip), vehicle: distilled water + Tween-80): 135 % of control
T/C (T/C endpoint: median survival time, dose: 200.0 mg/kg/injection, schedule: Q01DX009 (ip), vehicle: distilled water + Tween-80): 131 % of control [9 of 10 alive]
survivor count (T/C endpoint: median survival time, dose: 800.0 mg/kg/injection, schedule: Q01DX009 (ip), vehicle: distilled water + Tween-80): 1 of 10

O=NN(c1ccccc1)c1ccc([N+](=O)[O-])cc1
survivor count [5]: 6 of 6
